# Drug screen on melanoma cell lines: cell count

Source: doi:10.1371/journal.pone.0140310, primary screening data, rounded.

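The test systems are human melanoma cell lines, treated with two drugs together for 72 h and then stained and imaged. Values are the number of DAPI-stained nuclei as a percentage of the DMSO control: 100 is no effect, lower means fewer cells. Every drug was used at one fixed concentration, the higher of two screened. No replicate spread is given; individual values may be noisy.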 This is part of the screen, not chosen by result.

All values are for the listed drug together with MK-1775 (0.1 µM): C=CCn1c(=O)c2cnc(Nc3ccc(N4CCN(C)CC4)cc3)nc2n1-c1cccc(C(C)(C)O)n1

| Second drug | C32 | COLO 829 | COLO 792 | WM451Lu |
|---|---|---|---|---|
| CN(NC(=O)CC(=O)NN(C)C(=S)c1ccccc1)C(=S)c1ccccc1 at 0.03 µM | 27.0 | 47.9 | 17.6 | 80.2 |
| CN(C)S(=O)(=O)c1ccc2c(c1)/C(=C/c1cc3c([nH]1)CCCC3)C(=O)N2 at 2 µM | 86.0 | 82.3 | 55.9 | 80.1 |
| Cc1ccc(Nc2nccc(N(C)c3ccc4c(C)n(C)nc4c3)n2)cc1S(N)(=O)=O at 2 µM | 102 | 81.5 | 52.3 | 97.8 |
| Cc1ccc(NC(=O)c2cccc(N(C)C)c2)cc1NC(=O)c1ccc(O)cc1 at 10 µM | 95.1 | 81.6 | 63.4 | 77.1 |
| O=C(O)c1ccc(-c2c[nH]c3ncc(-c4ccccc4)cc23)cc1C1CCCC1 at 0.8 µM | 84.0 | 78.3 | 78.1 | 125 |
| CC(C)(C)c1cnc(CSc2cnc(NC(=O)C3CCNCC3)s2)o1 at 0.05 µM | 90.7 | 89.8 | 76.7 | 75.8 |
| O=C(Nc1cccc(Cl)c1)Nc1ncc(CCNc2ncnc3ccsc23)s1 at 0.004 µM | 57.3 | 65.1 | 62.8 | 31.4 |
| Cn1cncc1[C@@](N)(c1ccc(Cl)cc1)c1ccc2c(c1)c(-c1cccc(Cl)c1)cc(=O)n2C at 0.05 µM | 62.1 | 75.3 | 65.7 | 69.7 |
| Oc1cc(-c2nc(-c3ccccc3)[nH]c2-c2ccncc2)ccc1Cl at 1 µM | 75.3 | 74.2 | 75.9 | 54.9 |
| O=C(Nc1cc(C(F)(F)F)cc(C(F)(F)F)c1)c1cc(Cl)ccc1O at 0.08 µM | 97.3 | 87.5 | 83.1 | 100 |
| Cc1nc(Nc2ncc(C(=O)Nc3c(C)cccc3Cl)s2)cc(N2CCN(CCO)CC2)n1 at 0.02 µM | 53.2 | 56.5 | 20.4 | 62.7 |
| COc1ccc(COc2ccc(Cc3cnc(N)nc3N)cc2OC)cc1 at 5 µM | 88.0 | 93.8 | 90.9 | 99.1 |
| COc1cc2ncnc(Nc3ccc(Oc4ccccc4)cc3)c2cc1OC at 10 µM | 81.4 | 95.5 | 40.4 | 76.2 |
| CS(=O)(=O)CCNCc1ccc(-c2ccc3ncnc(Nc4ccc(OCc5cccc(F)c5)c(Cl)c4)c3c2)o1 at 4 µM | 92.2 | 87.7 | 62.3 | 83.2 |
| O=C(Oc1ccc([N+](=O)[O-])cc1)N1CCC(C(O)(c2ccc3c(c2)OCO3)c2ccc3c(c2)OCO3)CC1 at 5 µM | 91.7 | 77.3 | 61.9 | 95.5 |
| O=C(O)C(=O)Nc1sc2c(c1C(=O)O)CCNC2 at 8.33 µM | 86.5 | 98.4 | 54.6 | 95.6 |
| CCCCCCCCCCCC1=C(O)C(=O)C=C(O)C1=O at 6 µM | 94.2 | 58.9 | 46.7 | 74.1 |
| C/C(O)=C(\C#N)C(=O)Nc1cc(Br)ccc1Br at 10 µM | 83.2 | 96.1 | 72.3 | 106 |
| COc1ccc(C2=N[C@@H](c3ccc(Cl)cc3)[C@@H](c3ccc(Cl)cc3)N2C(=O)N2CCNC(=O)C2)c(OC(C)C)c1 at 0.5 µM | 69.2 | 77.7 | 85.5 | 77.6 |
| O=C(/C=C/c1cccnc1)NCCCCC1CCN(C(=O)c2ccccc2)CC1 at 0.05 µM | 103 | 61.5 | 45.5 | 74.7 |
| CNC(=O)c1cc(Oc2ccc(NC(=O)Nc3ccc(Cl)c(C(F)(F)F)c3)cc2)ccn1 at 2 µM | 101 | 98.0 | 125 | 92.9 |
| Cn1cc(C2=C(c3cn(C4CCN(Cc5ccccn5)CC4)c4ccccc34)C(=O)NC2=O)c2ccccc21 at 4 µM | 78.6 | 84.3 | 61.6 | 88.6 |
| Nc1ccn([C@@H]2O[C@H](CO)[C@@H](O)C2(F)F)c(=O)n1 at 0.002 µM | 57.8 | 49.0 | 22.8 | 35.2 |
| CO[C@@H]1[C@H](N(C)C(=O)c2ccccc2)C[C@H]2O[C@]1(C)n1c3ccccc3c3c4c(c5c6ccccc6n2c5c31)C(=O)NC4 at 0.4 µM | 49.5 | 62.2 | 40.0 | 72.3 |
| Cc1cc(N2CCOCC2)cc2[nH]c(-c3c(NC[C@@H](O)c4cccc(Cl)c4)cc[nH]c3=O)nc12 at 1 µM | 93.2 | 90.5 | 34.9 | 75.0 |
| Cc1cc(SCc2sc(-c3ccc(C(F)(F)F)c(F)c3)nc2C)ccc1OCC(=O)O at 10 µM | 86.4 | 115 | 76.5 | 98.2 |
| OCCn1cc(-c2cnc3nnn(Cc4ccc5ncccc5c4)c3n2)cn1 at 5 µM | 78.7 | 75.8 | 68.6 | 90.9 |

For reference, 3 entries once more:

| Second drug | C32 | COLO 829 | COLO 792 | WM451Lu |
|---|---|---|---|---|
| O=C(O)C(=O)Nc1sc2c(c1C(=O)O)CCNC2 at 8.33 µM | 86.5 | 98.4 | 54.6 | 95.6 |
| CCCCCCCCCCCC1=C(O)C(=O)C=C(O)C1=O at 6 µM | 94.2 | 58.9 | 46.7 | 74.1 |
| CN(NC(=O)CC(=O)NN(C)C(=S)c1ccccc1)C(=S)c1ccccc1 at 0.03 µM | 27.0 | 47.9 | 17.6 | 80.2 |